PubChem BioAssay AID1224826 – NIAID, 2016
Aim: 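Genes that change LPS-induced Tnf promoter activity in mouse macrophages when knocked down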 (primary screen). System: RAW264.7 G9 macrophages from mouse bearing reporters for p65 (GFP) and the Tnf promoter (mCherry). Reagent: siRNA pool against mouse genes, 100 nM. Timing: 16 h of LPS stimulation, after 2 days of siRNA transfection. Treatment: bacterial lipopolysaccharide (Salmonella minnesota R595), 10 ng/ml. Read-out: 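Nuclear mCherry signal of the Tnf promoter reporter measured by imaging after background removal, scaled to each plate median and turned into robust z-scores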. Reading the numbers: Tnf reporter robust z-score: higher = stronger Tnf promoter reporter signal after LPS; Tnf reporter intensity: higher = stronger Tnf promoter reporter signal. Hit rule: 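a well counts as active at a score of -1.3 or below (Tlr4 knock-down control median) or above 3 (raised signal); controls and wells holding fewer than 50 cells are excluded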. Calls: active = Tnf reporter clearly lowered or raised; inactive = no clear change in Tnf reporter.
Here is a random part of about 17,000 reagents tested. In the full data, about 1,110 (6.6%) are marked active. 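Active means lowered or raised reporter signal; replicate intensities are raw and not normalised per plate.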 A number with no mark means an inactive call. The numbers tell different reagents against one gene apart. Reagent sequences are not shown.

no.	gene symbol	reagent	Tnf reporter robust z-score	fewer than 50 cells in well	Tnf reporter intensity, replicate 1	Tnf reporter intensity, replicate 2
1	Nat8f1	1	0.87	enough cells in well	278	138
2	Tex16	1	1.13	enough cells in well	146	143
3	H2al2a	1	-0.52	enough cells in well	180	67.7
4	Gpr108	1	0	enough cells in well	216	184
5	Ralgds	1	-0.4	enough cells in well	305	152
6	Spata6	1	1.35	enough cells in well	172	120
7	Retsat	1		fewer than 50 cells per well; well left out of calls	144	50.3
8	Rabep1	1	0.76	enough cells in well	175	150
9	Syt1	1	-0.36	enough cells in well	249	186
10	H2-Ab1	1		fewer than 50 cells per well; well left out of calls	147	54.9
11	H2-Ab1	2	-0.32	enough cells in well	100	128
12	Or55b10	1		fewer than 50 cells per well; well left out of calls	49.6	38.1
13	Egr1	1	-0.59	enough cells in well	183	185
14	Klhl13	1	-0.91	enough cells in well	145	82.9
15	Pak3	1	-1.02	enough cells in well	119	106
16	Slc25a13	1	0.73	enough cells in well	264	184
17	Mta2	1	0.93	enough cells in well	385	238
18	Rab21	1	-0.55	enough cells in well	265	158
19	Mtmr10	1	0.3	enough cells in well	245	208
20	Or10ak14	1	-1.36 (active)	enough cells in well	107	58.9
21	Mxd3	1	-1.04	enough cells in well	136	75.1
22	Sox9	1	0.52	enough cells in well	323	97.9
23	Rbm19	1	-0.48	enough cells in well	178	70.6
24	E030011O05Rik	1	2.06	enough cells in well	300	206
25	Zfp661	1	-0.89	enough cells in well	177	67.4
26	Asz1	1	-1.08	enough cells in well	156	87.6
27	Col5a1	1	-0.82	enough cells in well	170	158
28	Adam4	1	1.77	enough cells in well	390	241
29	Smim7	1	0.36	enough cells in well	192	222
30	Zmat5	1	-0.25	enough cells in well	249	57.9
31	Flt1	1	-0.33	enough cells in well	139	170
32	Cnn1	1	-0.86	enough cells in well	135	101
33	Ptpn2	1	-0.36	enough cells in well	237	151
34	Homer2	1	0.63	enough cells in well	220	226
35	Zfp119a	1		fewer than 50 cells per well; well left out of calls	74.7	36.8
36	Abca16	1	1.41	enough cells in well	343	239
37	Fosb	1	0.01	enough cells in well	286	211
38	Ginm1	1	2.07	enough cells in well	336	369
39	Smo	1	0.26	enough cells in well	282	99.7
40	Pla2g4e	1	1.2	enough cells in well	215	57.9
41	Caly	1	-1.16	enough cells in well	135	132
42	Prkca	1		fewer than 50 cells per well; well left out of calls	102	86.8
43	Psmb7	1	4.32 (active)	enough cells in well	194	314
44	Ddx5	1		fewer than 50 cells per well; well left out of calls	103	128
45	Esrp1	1		fewer than 50 cells per well; well left out of calls	274	88.4
46	Wdr41	1	0.71	enough cells in well	249	264
47	Or13c7c	1	0	enough cells in well	184	118
48	Apoc1	1	-0.26	enough cells in well	159	149
49	Tceal8	1		fewer than 50 cells per well; well left out of calls	219	61.7
50	F3	1	0.86	enough cells in well	315	277
51	Celf5	1		fewer than 50 cells per well; well left out of calls	241	40
52	Rps4l	1	0.09	enough cells in well	308	69
53	Stk24	1	0.39	enough cells in well	197	150
54	Arhgap9	1	0.7	enough cells in well	218	196
55	Tax1bp1	1	1	enough cells in well	331	167
56	Fbxw13	1	0.96	enough cells in well	249	150
57	Lrrc59	1	-0.61	enough cells in well	102	158
58	Kpna6	1	0.07	enough cells in well	249	150
